## Results of single-concentration screens

Chains of the proteins cited; added tags and fusions are not shown. Residues count along the entry.
UniProt Q8IDJ8, 1-583: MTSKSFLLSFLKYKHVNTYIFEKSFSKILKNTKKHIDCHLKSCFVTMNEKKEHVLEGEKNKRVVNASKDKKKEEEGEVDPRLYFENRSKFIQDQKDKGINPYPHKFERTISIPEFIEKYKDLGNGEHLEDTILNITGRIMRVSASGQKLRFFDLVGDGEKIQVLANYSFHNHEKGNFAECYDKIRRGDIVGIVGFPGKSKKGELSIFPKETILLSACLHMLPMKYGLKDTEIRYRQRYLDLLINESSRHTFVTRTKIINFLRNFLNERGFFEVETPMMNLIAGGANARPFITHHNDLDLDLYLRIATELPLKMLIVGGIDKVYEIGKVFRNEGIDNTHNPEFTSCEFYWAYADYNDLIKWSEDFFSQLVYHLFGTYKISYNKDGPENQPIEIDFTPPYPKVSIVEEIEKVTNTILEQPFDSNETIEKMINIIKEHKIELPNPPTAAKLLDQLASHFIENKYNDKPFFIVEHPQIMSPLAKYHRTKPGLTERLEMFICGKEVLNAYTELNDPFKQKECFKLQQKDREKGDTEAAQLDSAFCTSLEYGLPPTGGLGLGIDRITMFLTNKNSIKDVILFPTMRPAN
UniProt A4I591, 1-473: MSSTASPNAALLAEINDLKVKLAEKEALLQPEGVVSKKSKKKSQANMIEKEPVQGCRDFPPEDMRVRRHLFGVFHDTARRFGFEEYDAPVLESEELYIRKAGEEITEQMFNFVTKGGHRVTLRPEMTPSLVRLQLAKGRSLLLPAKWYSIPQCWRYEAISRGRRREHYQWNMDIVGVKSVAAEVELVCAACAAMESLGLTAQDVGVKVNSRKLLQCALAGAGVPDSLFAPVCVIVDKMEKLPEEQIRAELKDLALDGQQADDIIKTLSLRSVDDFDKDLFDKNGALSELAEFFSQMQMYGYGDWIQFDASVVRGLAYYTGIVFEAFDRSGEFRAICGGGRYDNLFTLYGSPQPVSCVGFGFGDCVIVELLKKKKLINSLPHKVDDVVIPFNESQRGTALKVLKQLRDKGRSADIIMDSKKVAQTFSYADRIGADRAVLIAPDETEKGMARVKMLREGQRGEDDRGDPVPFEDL
UniProt Q4DA54, 1-478: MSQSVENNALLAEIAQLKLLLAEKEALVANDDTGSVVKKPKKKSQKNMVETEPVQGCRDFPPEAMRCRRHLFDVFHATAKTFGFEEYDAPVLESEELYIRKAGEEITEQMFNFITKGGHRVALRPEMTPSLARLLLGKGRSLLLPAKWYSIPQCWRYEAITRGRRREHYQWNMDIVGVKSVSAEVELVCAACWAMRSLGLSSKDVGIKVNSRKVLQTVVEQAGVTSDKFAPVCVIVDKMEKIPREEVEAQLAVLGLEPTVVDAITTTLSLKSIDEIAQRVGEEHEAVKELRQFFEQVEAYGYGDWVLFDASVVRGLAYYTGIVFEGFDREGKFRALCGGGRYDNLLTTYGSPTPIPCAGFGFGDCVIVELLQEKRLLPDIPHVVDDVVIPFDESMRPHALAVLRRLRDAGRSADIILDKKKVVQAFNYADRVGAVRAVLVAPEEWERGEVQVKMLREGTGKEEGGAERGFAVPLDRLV
UniProt P9WPC5, whole entry: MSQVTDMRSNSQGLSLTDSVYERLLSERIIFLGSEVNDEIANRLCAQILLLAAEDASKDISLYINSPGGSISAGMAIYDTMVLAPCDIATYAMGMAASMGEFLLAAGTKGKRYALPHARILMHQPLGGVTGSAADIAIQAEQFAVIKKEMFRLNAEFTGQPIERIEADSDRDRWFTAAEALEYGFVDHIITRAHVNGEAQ
UniProt P9WPC3, whole entry partner: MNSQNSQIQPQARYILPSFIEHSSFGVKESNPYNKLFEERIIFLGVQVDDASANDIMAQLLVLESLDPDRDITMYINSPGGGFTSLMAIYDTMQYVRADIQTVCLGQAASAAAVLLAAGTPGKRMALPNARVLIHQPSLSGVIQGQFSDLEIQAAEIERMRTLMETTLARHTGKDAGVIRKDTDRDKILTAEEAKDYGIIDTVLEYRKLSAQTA

Values are the deposited “Percent Effect”, in %.
The controls that fix the scale are not given in the record; negative values are as filed.
This is an unselected part of the compounds tested.
A dash means the value is not listed here; it may have been measured.

PfKRS1: 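Lysine-tRNA ligase, Plasmodium falciparum 3D7 (UniProt Q8IDJ8). Enzyme assay of the cytosolic lysyl-tRNA synthetase in 384-well plates, read by luminescence. Concentration: 30 µM. Direction is inferred from only a few compounds that gave an IC50; most scored high, so higher reads as stronger inhibition. About 69,000 compounds were tested under these conditions; 0.071% (about 49) showed 50% or more at least once.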
LiHisRS: 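Histidine-tRNA ligase, Leishmania infantum (UniProt A4I591). Enzyme assay of histidyl-tRNA synthetase; the read-out is not stated. Compounds at 30 µM. The record gives no direction; compounds that gave an IC50 in retests scored well above the rest, so higher reads as stronger inhibition. The assay is labelled LdHisRS but filed under L. infantum. Of about 69,000 compounds tested this way, about 410 (0.6%) reached 50% or more in at least one test.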
TcHisRS: 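Enzyme assay of histidyl-tRNA synthetase; the read-out is not stated. Target: Histidine-tRNA ligase, Trypanosoma cruzi CL Brener (UniProt Q4DA54). Compounds at 30 µM. Direction is inferred from retests: higher values go with stronger inhibition. Size under these conditions: about 69,000 compounds, about 31 of them at 50% or above in at least one test.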
Leishmania in macrophages: 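Cell assay of Leishmania donovani living inside macrophages; the read-out is not stated. Compounds at 30 µM. Higher reads as stronger inhibition (inferred: compounds with an IC50 in retests scored well above the rest). Size under these conditions: about 69,000 compounds, about 1,000 of them at 50% or above in at least one test.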
ClpP1P2: 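ClpP1P2, Mycobacterium tuberculosis (UniProt P9WPC5 and UniProt P9WPC3). Protease assay of ClpP1P2, read by the AMC dye that it sets free. Tested at 50 µM. Higher reads as stronger inhibition, judged from the few compounds that gave an IC50. Most other retested compounds had strongly negative values. About 69,000 compounds were tested under these conditions; 0.015% (about 10) showed 50% or more at least once.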

compound	PfKRS1	LiHisRS	TcHisRS	Leishmania in macrophages	ClpP1P2
CS(=O)(=O)c1ccc(CN2C[C@H]3CC[C@@H]2CN(c2ncccn2)C3)cc1	6.827	15	2.609	-	-12.25
Cc1cc(N2CCC(Cc3cnccn3)C2)ncn1 (centres undefined)	1.293	14.08	10	24.84	-5.188
CN(C)C(=O)CC1CC2(CCN(Cc3ccsc3)CC2)c2ccccc21.O=C(O)C(F)(F)F (centres undefined)	-	-	-	1.475	-
FC(F)(F)c1csc(N2CCN(Cc3ccccn3)CC2)n1	4.327	12.94	5.025	13.53	-9.057
CCc1ccc(C2CCCCCN2C(=O)CNC(=O)C2CC2)o1 (centres undefined)	8.042	26.88	11.31	-31.81	0.8124
COc1ncc(C(=O)N(Cc2cnn(C)c2)C(C)C)cn1	4.281	19.51	7.212	7.053	-7.641
CCCc1noc(CS(=O)(=O)c2cccc(OC)c2)n1	-0.0344	8.219	-1.587	-29.84	-8.138
CCc1nc2n(n1)CC(NCc1cnc(-c3ccccc3)nc1)CC2 (centres undefined)	0.2229	2.679	1.156	-0.8715	-11.22
O=C(O)C(F)(F)F.[H][C@@]12CCN(Cc3c(C)noc3C)C[C@]1(C(=O)N1CCCO1)CCO2	-	-	-	-9.204	-
CNC(=O)C(NC(=O)CCc1cccc(OC2CCCC2)c1)C(C)C (centres undefined)	5.635	13.7	-2.105	1.65	-3.027
CC(C)COCC1CN(Cc2ccsc2)Cc2ncn(C)c21 (centres undefined)	4.354	13.7	5	-4.693	-14.75
CC(C)C(NC(=O)Nc1cnn(CC(N)=O)c1)c1ccc(Cl)cc1 (centres undefined)	3.631	10.67	2.717	2.034	-0.8314
[H][C@]12CNC[C@@]1(C(=O)NCc1c(C)noc1C)CN(C(=O)COC)C2	-	-	-	5.046	-
COCCN1C(=O)C2(CCN(CC3CC3)CC2)c2ccccc21	3.621	15.84	6.533	-	-3.327
CC(C)Oc1ccc(NCc2ccc([S+](C)[O-])cc2)c(F)c1 (centres undefined)	0.7141	9.589	-1.97	4.939	-10.83
CC(C)C1CN(C(=O)Nc2cnn(CC(F)F)c2)CCS1 (centres undefined)	-2.886	6.897	-2.618	-12.96	-2.567
[H][C@@]12CCN(C(C)=O)[C@]1([H])C(=O)N(Cc1ccccc1)C(=O)N2	-	-	-	-1.332	-
COCC1c2c(cnn2CC2CC2)CCN1Cc1nccs1.O=C(O)C(F)(F)F.O=C(O)C(F)(F)F (centres undefined)	-	-	-	7.747	-
OC(c1cccs1)C1CCN(c2ncccn2)CC1 (centres undefined)	-1.464	21.98	5.422	27.21	-6.428
CC(C)c1noc(CCC(=O)N2CCCC(n3ccnc3)C2)n1 (centres undefined)	-1.388	8.333	-2.041	-20.3	-0.3977
Cc1nc(C)n(C2CCCN(C(=O)c3ccc(O)nc3)C2)n1 (centres undefined)	-0.09809	7.339	2.041	-8.481	-17
Cc1cc(C(=O)N2CC[C@H](N3CCN(C)CC3)[C@H](CCCO)C2)n(C)n1	8.704	11.67	2.609	20.12	-11.86
Cc1nc(CCNC(=O)NC2CCCN(c3ncccn3)C2)cs1 (centres undefined)	2.65	24.47	5.025	-7.463	13.09
CN1CCN(c2cc(Sc3cccs3)nc(N)n2)CC1CCO (centres undefined)	2.76	9.836	9.013	15.87	-17.63
COc1ccc(-n2c(SC)nc(O)c(Cc3ccccc3)c2=O)cc1	3.371	7.229	-1.657	14.31	-14.98
[H][C@]12CCCCN1CCC[C@H]2CCC(=O)NCCc1cc(O)nc(C)n1	-	-	-	25.31	-
CC(=O)c1c(C)cc(C)c(Cn2ccnc2S(C)(=O)=O)c1C	8.126	6.494	5.419	9.182	-5.056
CCc1ccc(CN2CCC(=O)N(CC3CC3)C(C(C)C)C2)nc1 (centres undefined)	2.482	10	2.597	-5.95	1.926
CC(C)(C)OC(=O)N1CCC(C(=O)NC2CCS(=O)(=O)C2)CC1 (centres undefined)	9.47	16.88	-1.478	6.783	0.6414
CC(C)c1cncnc1N1CC[C@H](N2CCOCC2)[C@H](CCCO)C1	-2.645	2.083	1.657	26.26	1.654

Measurements from “University of Dundee, Small-Polar-MMV Screening Library” (2021), ChEMBL document CHEMBL3988442.